These are yes or no findings as the source states them, for the method shown. Binding seen in cells or lysates may run through a third protein. Binding can be weak; no strength is given. For some assays here: Where a sequence is shown, tags or fusion partners need not be part of it.
T1: FLAG-Npas4 (from pBOS-3FLAG-Npas4) (mouse) (UniProt Q8BGD7)
T1 sequence: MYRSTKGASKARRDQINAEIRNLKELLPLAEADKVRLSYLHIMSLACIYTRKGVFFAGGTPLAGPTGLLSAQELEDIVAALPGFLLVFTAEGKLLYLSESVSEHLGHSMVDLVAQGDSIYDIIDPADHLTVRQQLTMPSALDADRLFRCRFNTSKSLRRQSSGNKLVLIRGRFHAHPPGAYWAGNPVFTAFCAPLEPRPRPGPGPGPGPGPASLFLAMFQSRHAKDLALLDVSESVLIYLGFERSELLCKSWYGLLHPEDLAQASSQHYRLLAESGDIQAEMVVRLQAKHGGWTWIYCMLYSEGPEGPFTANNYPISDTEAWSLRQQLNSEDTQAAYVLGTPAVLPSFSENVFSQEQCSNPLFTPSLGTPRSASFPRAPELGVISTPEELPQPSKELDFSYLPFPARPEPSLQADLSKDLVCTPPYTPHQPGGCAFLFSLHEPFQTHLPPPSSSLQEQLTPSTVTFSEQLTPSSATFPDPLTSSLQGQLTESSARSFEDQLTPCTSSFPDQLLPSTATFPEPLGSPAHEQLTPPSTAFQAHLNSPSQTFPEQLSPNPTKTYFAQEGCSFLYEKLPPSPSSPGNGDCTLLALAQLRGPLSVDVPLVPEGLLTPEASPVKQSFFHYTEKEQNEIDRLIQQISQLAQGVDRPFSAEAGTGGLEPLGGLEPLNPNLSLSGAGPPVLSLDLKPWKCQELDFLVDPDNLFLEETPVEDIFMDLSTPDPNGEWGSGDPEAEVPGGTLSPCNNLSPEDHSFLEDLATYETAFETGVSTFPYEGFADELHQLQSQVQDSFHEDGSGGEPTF

T2: Npas4 segment (amino acids 496-668), deletion mutant of FLAG-Npas4 (mouse) (UniProt Q8BGD7)
T2 sequence: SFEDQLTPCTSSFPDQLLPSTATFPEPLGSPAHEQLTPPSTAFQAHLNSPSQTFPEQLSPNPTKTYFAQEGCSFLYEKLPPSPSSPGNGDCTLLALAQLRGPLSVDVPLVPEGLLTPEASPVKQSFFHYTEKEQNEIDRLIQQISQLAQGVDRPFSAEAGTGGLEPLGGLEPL


Tests used:
[1] = molecular target: T1, FLAG-Npas4 (from pBOS-3FLAG-Npas4) (mouse); test: co-IP; HEK293T cells co-transfected with Myc-IPAS and FLAG-Npas4 plasmids or their deletions; extracts 48 h after transfection; immunoprecipitation with anti-FLAG antibody, immunoblotting with anti-Myc antibody
[2] = molecular target: T2, Npas4 segment (amino acids 496-668), deletion mutant of FLAG-Npas4 (mouse); test: as above
[3] = molecular target: FLAG-IPAS (mouse); test: co-IP; HEK293T cells transfected with FLAG-IPAS alone; extracts 48 h after transfection; immunoprecipitation with anti-FLAG antibody, immunoblotting for endogenous Npas4 with anti-Npas4 antibody

binding [1]	binding [2]	binding [3]	Molecule
binds			IPAS C (C-terminal deletion mutant of Myc-IPAS) (mouse) (domain or fragment)
binds	binds		Myc-IPAS (inhibitory PAS domain protein, from pBOS-3Myc-IPAS) (mouse)
binds			IPAS N (N-terminal deletion mutant of Myc-IPAS) (mouse) (domain or fragment)
		binds	endogenous Npas4 of HEK293T cells (protein, UniProt Q8IUM7 1-802) MYRSTKGASKARRDQINAEIRNLKELLPLAEADKVRLSYLHIMSLACIYTRKGVFFAGGTPLAGPTGLLSAQELEDIVAALPGFLLVFTAEGKLLYLSESVSEHLGHSMVDLVAQGDSIYDIIDPADHLTVRQQLTLPSALDTDRLFRCRFNTSKSLRRQSAGNKLVLIRGRFHAHPPGAYWAGNPVFTAFCAPLEPRPRPGPGPGPGPASLFLAMFQSRHAKDLALLDISESVLIYLGFERSELLCKSWYGLLHPEDLAHASAQHYRLLAESGDIQAEMVVRLQAKTGGWAWIYCLLYSEGPEGPITANNYPISDMEAWSLRQQLNSEDTQAAYVLGTPTMLPSFPENILSQEECSSTNPLFTAALGAPRSTSFPSAPELSVVSASEELPRPSKELDFSYLTFPSGPEPSLQAELSKDLVCTPPYTPHQPGGCAFLFSLHEPFQTHLPTPSSTLQEQLTPSTATFSDQLTPSSATFPDPLTSPLQGQLTETSVRSYEDQLTPCTSTFPDQLLPSTATFPEPLGSPAHEQLTPPSTAFQAHLDSPSQTFPEQLSPNPTKTYFAQEGCSFLYEKLPPSPSSPGNGDCTLLALAQLRGPLSVDVPLVPEGLLTPEASPVKQSFFHYSEKEQNEIDRLIQQISQLAQGMDRPFSAEAGTGGLEPLGGLEPLDSNLSLSGAGPPVLSLDLKPWKCQELDFLADPDNMFLEETPVEDIFMDLSTPDPSEEWGSGDPEAEGPGGAPSPCNNLSPEDHSFLEDLATYETAFETGVSAFPYDGFTDELHQLQSQVQDSFHEDGSGGEPTF

Source: PMC8531447
